The target in this assay is T1, human recombinant Myostatin-Fc protein (human) (UniProt O14793).
T1 sequence: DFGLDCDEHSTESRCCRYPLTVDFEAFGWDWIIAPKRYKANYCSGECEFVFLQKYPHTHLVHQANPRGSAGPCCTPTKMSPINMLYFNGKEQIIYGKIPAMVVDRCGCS
In words: SPR; Biacore T200; Myostatin-Fc immobilised on a CM5 chip at 2210.3 RU by EDC/NHS amine coupling; Myoki injected at seven concentrations from 3.125 to 200 uM, 30 uL/min, 25 C, HBS-EP running buffer; equilibrium responses fitted to a steady-state affinity model; both purified. (In general: SPR reads the build-up and loss of mass on a sensor chip optically.)

Results are given in words; binding and its absence hold for the method and conditions named. Some binding calls cover weakened binding; strength is not graded here. Sequences can lack the tags named with a protein.

As for EAEYEHL [Myoki peptide], the binding entry is recorded as “binds”.

Source of the values: paper PMC12935919 (Frontiers in Pharmacology, 2026).
